Experimental data published in patent US9683231B2, “RNAi-based method of drug screening and characterization” (Massachusetts Institute of Technology, priority 2010, dated 2017).
At least one structure is not confirmed: it was looked up by name or label, or the drawing left a doubt.

Experiments:
Assay type in all cases: cell-based, mouse
[1] = tested on: lymphoma cells expressing shATM, shChk2 or shp53; test: shATM-Chk2-p53 resistance signature; conditions: suppression of ATM, Chk2 and p53
Method: (3d) A comparison of the shTopoI and shTopoII response signatures for APG and NSC3852 with response signatures derived from established Topol (CPT and CPT11) and TopoII poisons (Dox, Mito and VP-16). […] In each case, one million cells were plated before treatment.
Eμ-Mycp19^Arf−/− cells were counted and seeded at 1 million cells per ml in 48-well plates and treated with various concentrations of drugs. To approximate therapeutic situations in which drug dose decreases over time, half of the volume from each experiment was removed and replenished with fresh medium every 24 h. Cells were analyzed by fluorescence-activated cell sorting (FACS), with propidium iodide as a viability marker. LD80-90 of drugs are defined as concentrations at which the lowest viability reading out of three FACS time points (24, 48 and 72 h) is between 10% and 20%. After drug dose was determined, Eμ-Mycp19^Arf−/− cells were infected with retroviruses encoding shRNAs targeting particular genes. Individual infected cell populations were counted and seeded at 1 million cells per ml in 48-well plates and treated with drugs using the aforementioned protocol. At 72 h, treated and untreated cells were analyzed by flow cytometry. GFP percentages of live (PI-negative) cells were recorded and used to calculate relative resistance index. […]

[2] = tested on: Eμ-Mycp19^Arf−/− lymphoma cells expressing shRNAs targeting the Bcl2 family, p53 and its activating kinases; test: 29-shRNA GFP competition assay, resistance index (RI), clustering and K-nearest-neighbors; conditions: FIG. 1d
Bim = Bim expression level by western blot; conditions: lymphoma cells treated for 6 or 9 hours

SMILES	shATM-Chk2-p53 resistance signature [1]	effect of suppression of the Bim transcription regulator Chop on drug response [2]	levels of the proapoptotic BH3-only protein Bim (Bim)
Cn1nnc2c(C(N)=O)ncn2c1=O [Temozolomide]	significant resistance	–	–
Nc1ncn([C@H]2C[C@H](O)[C@@H](CO)O2)c(=O)n1 [Decitabine]	–	resistance	increase
